The source of these data is patent US11859248B2, “Nucleic acid modification and identification method” (IMBA—INSTITUT FÜR MOLEKULARE BIOTECHNOLOGIE GMBH, priority 2017, dated 2024).

The data set in a line: Absorption measurement of 4-thiouracil alkylation by iodoacetamide. Type of data set: physicochemical. Particulars: 10 mM IAA; 50 mM NaPO4, pH8; 50% DMSO; 50° C.; 15 min.

Consider `O=c1[nH]ccc(=S)[nH]1` [4-thiouracil], for which the alkylation rate result is reported as “at least 98%” and the “decrease of absorption at 335 nm compared to untreated” value was found to be 50 fold.
